PubChem BioAssay AID588497 (NMMLSC, 2011)
The campaign covered roughly 360,000 compounds. About 780 (0.22%) were called active. Inconclusive means that the source gave no clear call. Such entries were picked first, then a sample of the others. No stated cut-off is given here; in the data, active means inhibition above about 35% (passing the limit was not always enough); inconclusive means no clear call, values can overlap the other calls.

The molecules below were run on Botulinum neurotoxin type F light chain protease (Clostridium botulinum) (assay: BoNT/F light chain protease inhibitors, primary screen, biochemical, flow cytometry, MLPCN library (AID 588497; further: plate controls were buffer without enzyme for full effect and enzyme alone for no effect)). Settings: Multiplex microsphere protease cleavage assay, at 10 µM, active compounds read high.

Row | SMILES | inhibition
1 | CCOC(=O)c1cnc2c([N+](=O)[O-])cnn2c1C | inactive: 4.4%
2 | CC(C)(O)C#Cc1ccc(C(=O)N2CCC(C(N)=O)(N3CCCCC3)CC2)cc1 | inconclusive: -34.8%
3 | COC(=O)c1[nH]c2ccccc2c1NC(=O)C(C)N1CC(C)OC(C)C1 (stereo unspecified) | inconclusive: -9.6%
4 | COc1cccc(/C=C2\SC(=S)N(c3cccnc3)C2=O)c1OC | inactive: 2.7%
5 | O=C1OCC/C1=C\NCCCCCCCCN/C=C1\CCOC1=O | inactive: -5%
6 | OCCNc1nc2ccccc2nc1NCCO | inconclusive: -5.9%
7 | COc1cc(CCNC2=CC(=O)c3ncccc3C2=O)ccc1O | inactive: -21.2%
8 | CCOC(=O)C(CC)(CC)/C(C)=N/NC(=O)CC#N | inconclusive: 0.1%
9 | CCCC(C1=C(O)CC(C)(C)CC1=O)C1C(=O)CC(C)(C)CC1=O (stereo unspecified) | inconclusive: 14.8%
10 | Cc1cc(N2CCNCC2)nc2ccccc12 | inconclusive: 2.1%
11 | Cc1ccc(NC(=O)N2C3CCCC2CC(NC(=O)C(C)(C)C)C3)cc1 (stereo unspecified) | inconclusive: 21.1%
12 | Cc1ccccc1Cn1nnc2c1C(=O)c1ccccc1C2=O | inactive: -4.7%
13 | CC(C)CNC(=O)CSc1nc(-c2cccs2)cc(C(F)(F)F)n1 | active: 37.7%
14 | Cc1cc(C)n(C(=O)CNC(=O)c2cccs2)n1 | inactive: 15.8%
15 | CC(C)=CC(=O)Nc1nnc(C)s1 | inactive: -6%
16 | O=C(C[n+]1ccsc1)c1ccccc1 | inactive: -0.8%
17 | COc1ccc(C(=O)NCC(=O)c2ccccc2)cc1 | inconclusive: 0.2%
18 | O=C(COc1ccccc1)NNc1nc2ccccc2s1 | inconclusive: -29.7%
19 | C=CCn1c(COc2ccc(OC)cc2)nc2ccccc21 | inconclusive: -0.8%
20 | O=S1(=O)C=CC(c2ccccc2)C1 (stereo unspecified) | inconclusive: 10.9%
21 | O=C(NNc1ccccc1C(F)(F)F)c1cccs1 | inconclusive: -0.7%
22 | Cc1ccc(F)cc1NC(=O)Nc1cc(C(C)(C)C)nn1C | inconclusive: 10.8%
23 | COc1cc(OC)cc(-c2c(C#Cc3ccsc3)c3cc(-c4cnc(OC)nc4)ccc3n2C)c1 | inactive: -5.7%
24 | COc1ccc(N2C(=O)[C@H]3[C@@H](C2=O)C2c4ccccc4C=NN2[C@H]3C(=O)C(C)(C)C)cc1 (stereo partly specified) | inconclusive: -5%

Sorted by molar mass (descending): 3 of the compounds above.
Row | SMILES | inhibition
24 | COc1ccc(N2C(=O)[C@H]3[C@@H](C2=O)C2c4ccccc4C=NN2[C@H]3C(=O)C(C)(C)C)cc1 (stereo partly specified) | inconclusive: -5%
9 | CCCC(C1=C(O)CC(C)(C)CC1=O)C1C(=O)CC(C)(C)CC1=O (stereo unspecified) | inconclusive: 14.8%
7 | COc1cc(CCNC2=CC(=O)c3ncccc3C2=O)ccc1O | inactive: -21.2%

Continuation:

Row | SMILES | inhibition
25 | COc1ccc(CNC(=S)Nc2cccc(Cl)c2)cc1 | inconclusive: 47.2%
26 | COc1ccc(N(C(C)C(=O)N2CCCC2)S(C)(=O)=O)cc1 (stereo unspecified) | inconclusive: 41.6%
27 | CCn1ncc(C2=NOC(C(=O)NCc3ccc(Cl)cc3)C2)c1C (stereo unspecified) | inactive: 2.9%
28 | O=c1[nH]c(=O)n(CCC2=CCCCC2)c(O)c1/C=N/N1CCOCC1 | inconclusive: -28.7%
29 | C/C(=N\NC(=O)c1cc(-c2cccnc2)nc2ccccc12)c1ccc(O)cc1O | inactive: -23.8%
30 | O=C(CCn1cnc2ccccc2c1=O)Nc1ccc(S(=O)(=O)N2CCCCC2)cc1 | inactive: -2.4%
31 | COc1ccccc1/C=C/C=N/NC(=O)Cc1cccs1 | inactive: -6.9%
32 | CN1CCCC(OC(=O)c2cccc(Br)c2)C1 (stereo unspecified) | inconclusive: -1.5%
33 | COc1ccc(-n2c(SCC(=O)Nc3ccc(Br)cc3)nc(O)cc2=O)cc1 | inconclusive: -10.4%
34 | COCCNC(=O)c1ccccc1N(Cc1ccccc1)S(=O)(=O)c1ccccc1 | inconclusive: -14.7%
35 | CC(=O)c1csc(Nc2ccccc2Cl)n1 | inconclusive: -20.7%
36 | O=[N+]([O-])c1cc([N+](=O)[O-])c2cc3ccccc3nc2c1 | inconclusive: -51.3%
37 | CCc1cc(=O)n2[nH]c(C)c(-c3ccc(OC)cc3)c2n1 | inconclusive: 35.1%
38 | Cc1ccc(C(=O)NC(C)c2ccc(C)c(C)c2)s1 (stereo unspecified) | inconclusive: -47%
39 | Cc1ccc2c(c1)N(C(C)C(=O)NCCc1ccccc1)C(=O)CO2 (stereo unspecified) | inactive: -2.9%
40 | Nc1cc(=O)n(Cc2ccco2)c(=S)[nH]1 | inactive: 2.3%
41 | COc1cccc(NC(=O)CCN2CCOCC2)c1 | inconclusive: 18.1%
42 | O=C(c1ccc(OC2CCN(CCCc3ccccc3)CC2)cc1)N1CCCC1 | inactive: 0.2%
43 | CCOC(=O)c1ccc(NC(=O)CSc2nnnn2C2CCCCC2)cc1 | inactive: 3.8%
44 | O=c1nc(/C=C/c2ccc(O)c(O)c2)oc2ccccc12 | inactive: -2.1%
45 | CCN(CC)C(=O)CSc1nc2sc3c(c2c(=O)n1CCOC)CCC3 | inconclusive: -5.9%
46 | COc1ccccc1CC(=O)Nc1ccc2c(C)cc(=O)oc2c1 | inconclusive: 60.3%
47 | O=C(Nc1cccc(Cl)c1)N1N=CCC1c1ccccc1 (stereo unspecified) | inconclusive: -24.9%
48 | O=C(NCc1cc(Cl)cc(Cl)c1)c1ccc2nc([C@@H]3O[C@H](CO)[C@@H](O)[C@H]3O)[nH]c2c1 | inactive: 2.8%

Row | SMILES | inhibition
49 | CCOC(=O)c1ccc(OCCOc2cccc(C)c2)cc1 | inconclusive: 2.1%
50 | O=C(NC(=S)Nc1ccc2c(c1)OCCO2)c1ccco1 | inconclusive: 25.7%
51 | Cc1ccc(C2=NN3C(=O)c4ccccc4C3C2)cc1 (stereo unspecified) | inconclusive: -136%
52 | O=C(COC(=O)/C=C/c1ccc(F)cc1)NC1CCCC1 | inactive: -11.8%
53 | O=C(NCCSCc1ccco1)Nc1cc(Cl)cc(Cl)c1 | inconclusive: 18.9%
54 | CCOC(=O)N1CCN(C(=O)c2cc(-c3ccncc3)nc3ccccc23)CC1 | inconclusive: 14.9%
55 | Cc1nccn1CC(=O)N/N=C/c1c[nH]c2ccccc12 | inconclusive: -18.6%
56 | CCN(CC(=O)NCc1cccs1)C(=O)C(c1ccccc1)c1ccccc1 | inactive: 2.3%
57 | O=C(N/N=C/c1cccs1)C(O)c1ccccc1 (stereo unspecified) | inconclusive: 10.3%
58 | Cc1nc(NC(=O)c2ccccc2)sc1C | inconclusive: 27.9%
59 | CCOC(=O)CSc1nnc(-c2cc(OC)c(OC)c(OC)c2)o1 | inactive: -8.6%
60 | CCOC(=O)c1nnn(-c2nonc2N)c1-c1cccc2ccccc12 | inconclusive: 10.2%
61 | Cc1onc(-c2c(Cl)cccc2Cl)c1NC(=O)N1CCSCC1 | inconclusive: -19%
62 | O=S(=O)(c1ccccc1)c1cnc(-c2cccnc2)nc1-c1ccc(Cl)c(Cl)c1 | inactive: 10.8%
63 | Cc1cccc(OCc2nnc(SCC(=O)Nc3nccs3)o2)c1 | inconclusive: 126%
64 | Cn1c(=O)[nH]c(=O)c2c1nc(SCC(O)CCl)n2Cc1ccccc1 (stereo unspecified) | inconclusive: 11%
65 | CCOc1ccc(C(N)=O)cc1OC | inconclusive: -37.2%
66 | CN1C(=O)C2(OCCCO2)c2ccccc21 | inconclusive: -0.8%
67 | COc1ccc(-c2noc(-c3ccc(Br)o3)n2)cc1 | inconclusive: -90.4%
68 | CCOC(=O)c1sc(-c2ccc(OC)cc2)cc1NC(C)=O | inactive: -3.5%
69 | CC1Sc2ccc(S(=O)(=O)CCC(=O)NCc3ccc(Cl)cc3)cc2NC1=O (stereo unspecified) | inactive: -1.5%
70 | O=C(N/N=C/c1cc(Cl)cc([N+](=O)[O-])c1O)c1cccc(S(=O)(=O)N2CCOCC2)c1 | inconclusive: -11.8%
71 | c1ccc(-c2nc(NC3CCCC3)c3ccccc3n2)cc1 | inconclusive: 3.9%
72 | Cc1nnsc1-c1onc(C)c1C(=O)Nc1cc(Cl)cc(Cl)c1 | inconclusive: 31.2%

Row | SMILES | inhibition
73 | CC(=O)Nc1ccc(NC(=O)COc2ccc(S(=O)(=O)N3CCCC3)cc2)cc1 | inactive: -6.3%
74 | O=[N+]([O-])c1cccc(S(=O)(=O)NCCOc2cccc3cccnc23)c1 | inconclusive: 30.8%
75 | CS(=O)(=O)N1CCC(C(=O)Nc2ccc(F)c(Cl)c2)CC1 | inconclusive: -13%
76 | Fc1cccc(CN2CCC(Cc3ccccc3)CC2)c1 | inconclusive: 3.4%
77 | Cc1c(C(=O)N(C)C)sc(NC(=O)c2cccc([N+](=O)[O-])c2)c1C#N | inconclusive: 18.6%
78 | Cc1ccc(Cl)cc1N1CCN(C(=O)Cc2csc(Nc3nc(=S)[nH]c4ccccc34)n2)CC1 | inactive: -0.4%
79 | COc1ccccc1CNC(c1ccccc1)c1ccccc1 | inconclusive: -11.1%
80 | O=C(Nc1cccc2c1CCCC2)c1ccc(F)cc1 | inconclusive: -3.2%
81 | CCn1cc(C(=O)Nc2ccccc2C(=O)OC)cn1 | inconclusive: -30.2%
82 | CC(C)(CO)NC(=O)C12CC3CC(CC(Br)(C3)C1)C2 | inconclusive: 41.2%
83 | COc1cccc(NC(=S)Nc2cc(C)cc(C)n2)c1 | inconclusive: -4.3%
84 | CCC(=O)Nc1ccc(OCC2CCCO2)cc1 (stereo unspecified) | inconclusive: -2.9%
85 | O=C(O)c1ccc(CNS(=O)(=O)c2ccc(Oc3ccccc3Cl)cc2)cc1 | inconclusive: 20.6%
86 | CCOC(=O)C1CCCN(C(=O)CCCn2nnnc2CN2CCC(C)CC2)C1 (stereo unspecified) | inactive: 8.1%
87 | COc1ccc(OC)c(C2C(C(C)=O)=C(O)C(=O)N2CCc2ccc(OC)c(OC)c2)c1 (stereo unspecified) | inconclusive: 2.1%
88 | O=C(Nc1ncn[nH]1)c1c(Cl)ccc(Cl)c1Cl | inconclusive: -29.1%
89 | C/C(=N\NC(=O)Cn1nc(C)c([N+](=O)[O-])c1C)c1ccc(Cl)s1 | inconclusive: -11%
90 | CC(C)N1CC(C(=O)Nc2cccc([N+](=O)[O-])c2)CC1=O (stereo unspecified) | inactive: -49.2%
91 | CC[n+]1c(/C=C/N(C)c2ccccc2)sc2ccc(Cl)cc21 | active: 43.2%
92 | CC1CC(=O)N(CC(=O)Nc2ccc(Br)cc2)c2ccccc2S1(=O)=O (stereo unspecified) | inactive: -3.7%
93 | NC(=S)COc1ccccc1 | inconclusive: 23.1%
94 | O=C(O)c1cccc(Nc2c3ccccc3nc3ccccc23)c1 | inconclusive: 21.9%
95 | O=C1CCC(=O)N1OCCCOc1ccccc1 | inactive: -1%
96 | CCOC(=O)c1cc(-c2ccccc2)nc2nc(N(CC)CC)sc12 | inactive: 4.3%

Reformatted: entries from further up.
Row,SMILES,inhibition
75,CS(=O)(=O)N1CCC(C(=O)Nc2ccc(F)c(Cl)c2)CC1,inconclusive: -13%
76,Fc1cccc(CN2CCC(Cc3ccccc3)CC2)c1,inconclusive: 3.4%

Laid out differently: 2 of the compounds above
Row	SMILES	inhibition
76	Fc1cccc(CN2CCC(Cc3ccccc3)CC2)c1	inconclusive: 3.4%
77	Cc1c(C(=O)N(C)C)sc(NC(=O)c2cccc([N+](=O)[O-])c2)c1C#N	inconclusive: 18.6%
